Assay results taken from PubChem BioAssay AID1259354 (Paczesny and Yang Labs, IUPUI and University of Michigan, 2018).
Among all 78,000 compounds or so, about 1,800 (2.3%) were called active. The shares of active, inactive and inconclusive entries below differ from those in the screen. Rule as the data show it: active = inhibition above about 30%; inconclusive = mostly about 10% to 28%; inactive = weaker than that.

By UniProt entry, the sequences of proteins in these tests, tags left out. Where a name states a change or a piece, a line headed by the entry shows the natural chain unless it says otherwise.
UniProt Q01638: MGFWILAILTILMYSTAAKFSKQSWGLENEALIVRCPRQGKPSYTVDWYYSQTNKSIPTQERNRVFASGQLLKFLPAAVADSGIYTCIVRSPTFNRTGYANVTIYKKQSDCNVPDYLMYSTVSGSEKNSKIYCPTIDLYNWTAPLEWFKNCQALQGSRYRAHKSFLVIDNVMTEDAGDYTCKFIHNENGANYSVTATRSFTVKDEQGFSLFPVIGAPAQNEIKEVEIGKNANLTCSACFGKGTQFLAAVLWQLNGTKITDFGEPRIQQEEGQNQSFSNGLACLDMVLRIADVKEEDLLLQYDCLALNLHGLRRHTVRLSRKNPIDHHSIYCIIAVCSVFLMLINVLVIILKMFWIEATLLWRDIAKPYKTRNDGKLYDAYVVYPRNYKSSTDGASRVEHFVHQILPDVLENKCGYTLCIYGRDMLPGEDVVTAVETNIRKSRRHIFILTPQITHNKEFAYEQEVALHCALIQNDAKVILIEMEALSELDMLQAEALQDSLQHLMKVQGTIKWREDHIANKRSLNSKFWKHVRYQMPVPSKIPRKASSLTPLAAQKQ

biological target: Interleukin-1 receptor-like 1 (Homo sapiens) (UniProt Q01638); assay: blocks human ST2 binding to IL-33, primary screen, biochemical, AlphaLISA (AID 1259354); conditions: AlphaLISA ST2-Fc/biotin-IL-33 interaction, 1 h; at 17 µM, hits give high values

SMILES	inhibition
CCC(C)OC(=O)C1=C(C)NC2=C(C(=O)C(C(=O)OC)C(C)C2)C1c1ccccc1F (stereo not given)	inactive
COc1ncccc1CN1CCC(c2ccnc(-c3cccc(O)c3)c2)C1 (stereo not given)	inconclusive: 21%
CCCCN(C)C(=O)c1cn(CC)c2ccc(S(=O)(=O)N3CCC(C)CC3)cc2c1=O	inconclusive: 14%
CCOC(CCNC(=O)c1cc2cc3ccc(OC)cc3nc2s1)OCC	inactive
CC(=O)N=C1S/C(=C\c2cccc(F)c2)C(=O)N1c1ccc(C)c(C)c1	inconclusive: 25%
O=[N+]([O-])c1ccc(CN2CCN(C3CC4CCC3C4)CC2)cc1 (stereo not given)	inconclusive: 11%
COc1ccc(C(=O)NCC(=O)O)cc1	inactive
Cc1ccc(CCNC(=O)CN2C(=O)CC(C)(C)Sc3ccccc32)cc1	inconclusive: 15%
Cc1cc(OCC(=O)NCCN2CCOCC2)cc(C)c1Br	inconclusive: 19%
Cc1ccc(-n2cnnn2)cc1Cl	inconclusive: 11%
O=C(CSc1nc(-c2ccccc2)cc(=O)[nH]1)Nc1ccccc1F	inconclusive: 10%
O=C(NCc1ccccc1)c1ccc2c(c1)N(Cc1ccccc1Cl)C(=O)CS2	inactive
Cc1cccn2c(CNC(=O)c3cc(C4CC4)[nH]n3)cnc12	inactive
CCN(Cc1cccc(Cl)c1)CC1CCOCC1	inconclusive: 14%
COc1ccc(OC)c(-c2nc(CN(Cc3cnn(C)c3)C(C)C)c(C)o2)c1	inconclusive: 18%
COc1ccc(NC(=O)CSCc2ccc([N+](=O)[O-])cc2)cc1OC	inconclusive: 14%
Cc1cccc(N(C)S(=O)(=O)c2cccc3nsnc23)c1	inconclusive: 13%
CCCCCCCCCCCCCCCCCC(=O)NCC(COP(=O)([O-])OCC[N+](C)(C)C)OCC (stereo not given)	inconclusive: 12%
CCOC(=O)c1ccc(NC(=O)c2cnc3scc(C)n3c2=O)cc1	inactive
CCOc1ccccc1N1CCN(Cc2cccc(OC)c2OC)CC1	inconclusive: 22%

SMILES	inhibition
Cc1cc(C)c(C(=O)c2ccccc2)c(=O)[nH]1	inactive
COc1c2c(c(C)c3c1C(=O)OC3)OC1(C)CC(O)C(C(C)(C)O)C(C)(CCC(=O)O)C1C2 (stereo not given)	inconclusive: 12%
O=C(NCc1ccc2c(c1)OCO2)c1cc([N+](=O)[O-])nn1Cc1ccccc1	inconclusive: 18%
O=C(c1ccccc1F)N1CCN(c2ccc([N+](=O)[O-])c3cccnc23)CC1	active: 35%
O=C(Nc1cc(Cl)ccc1Cl)c1ccc(Br)o1	inconclusive: 14%
O=[N+]([O-])c1ccc(Cl)c(-c2ncnn2-c2ccccc2C(F)(F)F)c1	inconclusive: 20%
O=C(O)c1ccc(CN2C[C@@H]3OCC(=O)N(Cc4ccccc4)[C@@H]3C2)cc1	inactive
CCCC12CN3CC(C)(CN(C1)C3c1ccccc1C)C2=O (stereo not given)	inconclusive: 11%
NCC1CCN(Cc2cnc(NCc3ccccc3)nc2)C1 (stereo not given)	inconclusive: 19%
CNC(=O)C1CCC(Cn2c(=O)c3sccc3n(CC(=O)N3CCCCCC3)c2=O)CC1 (stereo not given)	inactive
O=C(O)c1ccccc1NC(=O)C1CCCN1C(=O)c1ccc([N+](=O)[O-])cc1 (stereo not given)	inactive
Cn1c(=O)c(-c2ccccc2N)nc2ccccc21	inconclusive: 13%
Cc1cc(NC(=O)/C=C\c2ccccc2)nc2c1c(=O)oc1ccccc12	inconclusive: 15%
O=C(c1scc2c1CCCC2)N1CCCC(Nc2ccc(F)cc2)C1 (stereo not given)	inactive
CCn1ncc(S(=O)(=O)N2CCC(N3CCCC3=O)CC2)c1C	inconclusive: 20%
Cc1ccc(S(=O)(=O)n2cnc3cc(C)c(C)cc32)c(C)c1	inconclusive: 12%
COc1ccc(-n2ccnc2CN2CCc3nc(C)n(C)c(=O)c3CC2)cc1	inconclusive: 12%
CC(C)Oc1ccc(/C=C2/NC(=O)NC2=O)cc1Cl	inconclusive: 11%
CN1C(=O)C2(CCCN(C(=O)c3cn(CCN)nn3)C2)c2ccccc21 (stereo not given)	inconclusive: 11%
CC(=O)c1ccc(N2CN=c3s/c(=C\c4ccncc4)c(=O)n3C2)cc1	inconclusive: 14%

SMILES	inhibition
COc1ccc2nc3oc(C(=O)NC4CCCc5ccccc54)cc3cc2c1 (stereo not given)	inconclusive: 27%
Cc1ccc(NC(=O)C(NS(=O)(=O)c2cccs2)C(C)C)cc1Cl (stereo not given)	inactive
NC(=O)[C@@H](Cc1ccccc1)NC(=O)C1=C[C@@H](NC(=O)CS(=O)(=O)c2ccccc2)[C@@H](O)[C@H](O)C1	inconclusive: 11%
O=C(O)c1ccc(NC(=O)c2ccc(C(=O)Nc3ccc(C(=O)O)cc3)cc2)cc1	inactive
CN(Cc1cc(-c2cccs2)n[nH]1)C(=O)c1onc2ccccc12	inconclusive: 19%
O=C(CC[C@@H]1CNC(=O)[C@@H]2C[C@H](NC(=O)c3ccccc3)CN12)NCc1cccs1	inconclusive: 19%
CCOC(=O)c1c(NC(=O)c2noc3c2CCCC3)sc(C(C)=O)c1C	inconclusive: 25%
COc1cc(F)ccc1-c1c(-c2ccccc2)ncn1CC1CCOCC1	inactive
Cc1nn(C(=O)COc2ccc(Cl)cc2)c(C)c1Sc1ccccc1[N+](=O)[O-]	inconclusive: 15%
CC(=O)c1ccccc1-c1cccc(C(=O)NC(C)C)c1	inactive
C[C@]12CC[C@@H]3c4ccc(O)cc4CC[C@H]3[C@@H]1CC[C@@H]2O	inconclusive: 13%
NC(=O)CSc1nnc2c(n1)[nH]c1ccccc12	inactive
CCC(=O)NC(c1ccc(N(C)C)cc1)c1ccc2cccnc2c1O (stereo not given)	inconclusive: 27%
CN(CN1C(=O)C(=O)c2ccccc21)c1ccccc1	inconclusive: 16%
CCC(C)N1C(=O)S/C(=C/c2ccc(C(=O)O)cc2)C1=O (stereo not given)	inactive
C=C(C)CN(CC)Cc1ccccc1O	inactive
CC1(C)CC(=O)C2=C(C1)Nc1cc(C(=O)c3ccccc3)ccc1NC2c1ccco1 (stereo not given)	inactive
C=CCSc1nnc(-c2ccncc2)o1	inconclusive: 14%
CCOC(=O)N1CCN(C(=O)c2ccc(N3CCC(NCCc4ccncc4)CC3)cc2)CC1	inactive
CC1CCCN(C2CC(=O)N(c3ccc(Br)cc3Br)C2=O)C1 (stereo not given)	inconclusive: 11%

Some of the entries above in another layout:
CN(Cc1cc(-c2cccs2)n[nH]1)C(=O)c1onc2ccccc12
  inhibition: inconclusive: 19%
O=C(CC[C@@H]1CNC(=O)[C@@H]2C[C@H](NC(=O)c3ccccc3)CN12)NCc1cccs1
  inhibition: inconclusive: 19%
CCOC(=O)c1c(NC(=O)c2noc3c2CCCC3)sc(C(C)=O)c1C
  inhibition: inconclusive: 25%
COc1cc(F)ccc1-c1c(-c2ccccc2)ncn1CC1CCOCC1
  inhibition: inactive
